Assay results published in doi:10.1101/2021.01.27.428018.

Columns and labels:
Assay in all cases: affinity purification with mass spectrometry
[1] = biological target: FLAG-GATAD2B (full-length) (UniProt Q8WXI9)
[2] = biological target: T1, FLAG-GATAD2B-N (N-terminal half of GATAD2B, residues 1-276) (UniProt Q8WXI9)
T1 sequence: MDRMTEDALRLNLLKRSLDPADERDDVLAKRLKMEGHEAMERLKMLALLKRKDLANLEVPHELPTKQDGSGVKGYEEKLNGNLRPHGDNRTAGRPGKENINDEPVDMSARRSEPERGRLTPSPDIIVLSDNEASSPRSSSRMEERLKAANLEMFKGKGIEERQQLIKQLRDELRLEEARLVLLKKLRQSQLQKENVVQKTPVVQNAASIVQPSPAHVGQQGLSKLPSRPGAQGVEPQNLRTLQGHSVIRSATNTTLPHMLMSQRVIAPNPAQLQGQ

[3] = biological target: T2, FLAG-GATAD2B-C (GATAD2B C-terminal region) (UniProt Q8WXI9)
T2 sequence: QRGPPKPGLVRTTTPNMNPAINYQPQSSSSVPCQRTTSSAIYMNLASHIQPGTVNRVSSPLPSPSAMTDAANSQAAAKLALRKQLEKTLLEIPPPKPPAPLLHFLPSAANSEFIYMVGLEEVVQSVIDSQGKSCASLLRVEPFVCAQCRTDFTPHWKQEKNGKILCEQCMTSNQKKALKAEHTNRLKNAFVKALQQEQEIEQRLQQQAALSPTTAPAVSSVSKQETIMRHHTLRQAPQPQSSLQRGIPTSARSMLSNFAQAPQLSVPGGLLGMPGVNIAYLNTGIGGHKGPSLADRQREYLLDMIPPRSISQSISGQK

[4] = biological target: FLAG-GATAD2B (full-length) (UniProt Q8WXI9); remark: listed apart in the source
FLAG-MBD2b = biological target: FLAG-MBD2b
FLAG-CDK2AP1 [5] = biological target: T3, FLAG-CDK2AP1 (UniProt O14519)
T3 sequence: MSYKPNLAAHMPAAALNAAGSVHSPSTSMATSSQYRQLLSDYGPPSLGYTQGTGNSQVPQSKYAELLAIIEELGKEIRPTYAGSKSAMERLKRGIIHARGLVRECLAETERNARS

FLAG-CDK2AP1 [6] = biological target: T3, FLAG-CDK2AP1; remark: listed apart in the source
FLAG-MBD3 = FLAG-MBD3 (UniProt O95983)
FLAG-MBD2a, Q9UBB5 = conditions: remark: other sources report otherwise
FLAG-MBD3, O95983 = biological target: T4, FLAG-MBD3, O95983; conditions: remark: other sources report otherwise
T4 chain: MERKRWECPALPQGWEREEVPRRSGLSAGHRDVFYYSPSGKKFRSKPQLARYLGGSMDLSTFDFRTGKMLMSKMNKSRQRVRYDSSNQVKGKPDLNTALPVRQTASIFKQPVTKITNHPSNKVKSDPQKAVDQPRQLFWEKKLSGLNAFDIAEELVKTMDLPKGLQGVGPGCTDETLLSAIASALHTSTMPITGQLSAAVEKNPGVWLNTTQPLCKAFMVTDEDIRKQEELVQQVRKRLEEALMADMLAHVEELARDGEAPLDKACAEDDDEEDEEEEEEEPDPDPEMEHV

B1: CDK2AP1 (endogenous) (protein, UniProt O14519 1-115)
chain: MSYKPNLAAHMPAAALNAAGSVHSPSTSMATSSQYRQLLSDYGPPSLGYTQGTGNSQVPQSKYAELLAIIEELGKEIRPTYAGSKSAMERLKRGIIHARGLVRECLAETERNARS
binding [1]: binds
binding [2]: no binding
binding [3]: binds
binding [4]: binds
binding (FLAG-MBD2b): binds

B2: QKI (protein, UniProt Q96PU8 1-341)
chain: MVGEMETKEKPKPTPDYLMQLMNDKKLMSSLPNFCGIFNHLERLLDEEISRVRKDMYNDTLNGSTEKRSAELPDAVGPIVQLQEKLYVPVKEYPDFNFVGRILGPRGLTAKQLEAETGCKIMVRGKGSMRDKKKEEQNRGKPNWEHLNEDLHVLITVEDAQNRAEIKLKRAVEEVKKLLVPAAEGEDSLKKMQLMELAILNGTYRDANIKSPALAFSLAATAQAAPRIITGPAPVLPPAALRTPTPAGPTIMPLIRQIQTAVMPNGTPHPTAAIVPPGPEAGLIYTPYEYPYTLAPATSILEYPIEPSGVLGAVATKVRRHDMRVHPYQRIVTADRAATGN
binding (FLAG-CDK2AP1 [5]): binds
binding (FLAG-CDK2AP1 [6]): binds

B3: ZNF219 (protein, UniProt Q9P2Y4 1-722)
chain: MEGSRPRAPSGHLAPSPPAFDGELDLQRYSNGPAVSAGSLGMGAVSWSESRAGERRFPCPVCGKRFRFNSILALHLRAHPGAQAFQCPHCGHRAAQRALLRSHLRTHQPERPRSPAARLLLELEERALLREARLGRARSSGGMQATPATEGLARPQAPSSSAFRCPYCKGKFRTSAERERHLHILHRPWKCGLCSFGSSQEEELLHHSLTAHGAPERPLAATSAAPPPQPQPQPPPQPEPRSVPQPEPEPEPEREATPTPAPAAPEEPPAPPEFRCQVCGQSFTQSWFLKGHMRKHKASFDHACPVCGRCFKEPWFLKNHMKVHASKLGPLRAPGPASGPARAPQPPDLGLLAYEPLGPALLLAPAPTPAERREPPSLLGYLSLRAGEGRPNGEGAEPGPGRSFGGFRPLSSALPARARRHRAEEPEEEEEVVEAEEETWARGRSLGSLASLHPRPGEGPGHSASAAGAQARSTATQEENGLLVGGTRPEGGRGATGKDCPFCGKSFRSAHHLKVHLRVHTGERPYKCPHCDYAGTQSGSLKYHLQRHHREQRSGAGPGPPPEPPPPSQRGSAPQSGAKPSPQPATWVEGASSPRPPSSGAGPGSRRKPASPGRTLRNGRGGEAEPLDLSLRAGPGGEAGPGGALHRCLFCPFATGAPELMALHLQVHHSRRARGRRPPQADASPPYARVPSGETPPSPSQEGEEGSGLSRPGEAGLGGQER
binding (FLAG-MBD3): no binding
binding (FLAG-MBD2b): binds

B4: CDK2AP1 (endogenous), O14519 1-115 (protein)
chain: MSYKPNLAAHMPAAALNAAGSVHSPSTSMATSSQYRQLLSDYGPPSLGYTQGTGNSQVPQSKYAELLAIIEELGKEIRPTYAGSKSAMERLKRGIIHARGLVRECLAETERNARS
binding (FLAG-MBD2a, Q9UBB5): no binding
binding (FLAG-MBD3, O95983): no binding

B5: ZNF219, Q9P2Y4 1-722 (protein)
chain: MEGSRPRAPSGHLAPSPPAFDGELDLQRYSNGPAVSAGSLGMGAVSWSESRAGERRFPCPVCGKRFRFNSILALHLRAHPGAQAFQCPHCGHRAAQRALLRSHLRTHQPERPRSPAARLLLELEERALLREARLGRARSSGGMQATPATEGLARPQAPSSSAFRCPYCKGKFRTSAERERHLHILHRPWKCGLCSFGSSQEEELLHHSLTAHGAPERPLAATSAAPPPQPQPQPPPQPEPRSVPQPEPEPEPEREATPTPAPAAPEEPPAPPEFRCQVCGQSFTQSWFLKGHMRKHKASFDHACPVCGRCFKEPWFLKNHMKVHASKLGPLRAPGPASGPARAPQPPDLGLLAYEPLGPALLLAPAPTPAERREPPSLLGYLSLRAGEGRPNGEGAEPGPGRSFGGFRPLSSALPARARRHRAEEPEEEEEVVEAEEETWARGRSLGSLASLHPRPGEGPGHSASAAGAQARSTATQEENGLLVGGTRPEGGRGATGKDCPFCGKSFRSAHHLKVHLRVHTGERPYKCPHCDYAGTQSGSLKYHLQRHHREQRSGAGPGPPPEPPPPSQRGSAPQSGAKPSPQPATWVEGASSPRPPSSGAGPGSRRKPASPGRTLRNGRGGEAEPLDLSLRAGPGGEAGPGGALHRCLFCPFATGAPELMALHLQVHHSRRARGRRPPQADASPPYARVPSGETPPSPSQEGEEGSGLSRPGEAGLGGQER
binding (FLAG-MBD2a, Q9UBB5): no binding

Like-named read-outs stand apart in the source and are kept apart here. Results are given in words; binding and its absence hold for the method and conditions named. Binding seen in cells or lysates may run through a third protein. A yes stands for co-enrichment or nearness to the bait. Other partners may have been found. For part of these data: No binding means not detected with the bait. For part of these data: Where a sequence is shown, tags or fusion partners need not be part of it.
